## Library screen at single concentrations

By UniProt entry, the sequences of proteins in these tests, tags left out. Residues count along the entry.
UniProt A4I591, 1-473: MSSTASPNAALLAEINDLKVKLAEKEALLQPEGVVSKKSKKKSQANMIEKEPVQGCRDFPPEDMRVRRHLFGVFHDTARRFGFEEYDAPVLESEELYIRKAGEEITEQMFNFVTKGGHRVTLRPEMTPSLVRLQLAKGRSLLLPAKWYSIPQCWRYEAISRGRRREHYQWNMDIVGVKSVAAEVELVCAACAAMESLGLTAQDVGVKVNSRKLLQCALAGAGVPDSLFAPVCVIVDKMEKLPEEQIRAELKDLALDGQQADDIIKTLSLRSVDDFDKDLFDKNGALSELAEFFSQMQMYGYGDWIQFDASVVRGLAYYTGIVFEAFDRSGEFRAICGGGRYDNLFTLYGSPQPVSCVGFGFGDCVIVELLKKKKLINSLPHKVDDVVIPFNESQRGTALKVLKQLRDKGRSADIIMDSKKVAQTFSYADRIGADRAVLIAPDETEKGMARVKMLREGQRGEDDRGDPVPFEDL
UniProt P9WFT3, whole entry: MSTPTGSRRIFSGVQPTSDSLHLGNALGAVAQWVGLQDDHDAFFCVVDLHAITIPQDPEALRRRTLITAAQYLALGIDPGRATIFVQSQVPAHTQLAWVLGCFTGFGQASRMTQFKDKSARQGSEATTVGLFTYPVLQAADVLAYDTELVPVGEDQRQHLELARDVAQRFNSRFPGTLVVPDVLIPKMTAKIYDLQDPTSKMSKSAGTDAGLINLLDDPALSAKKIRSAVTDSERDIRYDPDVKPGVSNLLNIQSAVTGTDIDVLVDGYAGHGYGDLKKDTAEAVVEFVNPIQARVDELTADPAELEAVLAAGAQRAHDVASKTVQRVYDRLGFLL

Data taken from ChEMBL document CHEMBL3988442, “University of Dundee, Small-Polar-MMV Screening Library” (2021).

Each number is a percent effect as filed. The controls that fix the scale are not given in the record; negative values are as filed. This is an unselected part of the compounds tested.

A: 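Histidine-tRNA ligase, Leishmania infantum (UniProt A4I591). Enzyme assay of histidyl-tRNA synthetase; the read-out is not stated. Compounds at 30 µM. Higher reads as stronger inhibition (inferred: compounds with an IC50 in retests scored well above the rest). The assay is labelled LdHisRS but filed under L. infantum. Size under these conditions: about 69,000 compounds, about 410 of them at 50% or above in at least one test.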
B: 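Enzyme assay of tryptophanyl-tRNA synthetase; the read-out is not stated. Target: Tryptophan-tRNA ligase, Mycobacterium tuberculosis (UniProt P9WFT3). Concentration: 10 µM. Direction is not recorded; retested compounds ran higher, which suggests that high means inhibition. Size under these conditions: about 65,000 compounds, about 64 of them at 50% or above in at least one test.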

structure	A	B
CSc1cccc(NC(=O)N2CCC3(CCC(=O)N(C4CC4)C3)CC2)c1	10.42%	-6.708%
Cc1csc(CN2C[C@@H]3CN(C)CCO[C@@H]3C2)n1	10%	-0.4088%
CN(C)c1ncccc1CNC(=O)NCC(c1cccs1)N(C)C (stereo unspecified)	6.024%	-4.897%
CCc1noc(CN(CC(=O)N2CCCCC2)c2cccc(C)c2)n1	18.42%	-3.638%
CCO[C@@H]1CO[C@@]2(CCN(Cc3ccc4c(c3)OCO4)C2)C1	15.38%	-1.308%
Cc1ccc(N2CCC(C(=O)NC3CCc4nccn4C3)CC2)nc1 (stereo unspecified)	2.469%	0.1285%
CN(C(=O)CCc1nc(C2CC2)no1)c1cc(C#N)c2ccccc2n1	17.2%	2.25%
CCOC1CCN(C(=O)NCc2ccc(C(=O)N(C)C(C)C)cc2)CC1	16.67%	-4.854%
Cn1cc(NC(=O)N2CCCC2c2ccccn2)ccc1=O (stereo unspecified)	108%	-1.698%
c1ccc(N2CCN(Cc3cnc(C4CCCCO4)nc3)CC2)cc1 (stereo unspecified)	4.255%	0.3903%
CN1C[C@]2(CC[C@@H](C(=O)O)CC2)Oc2ccccc2C1=O	11.27%	-5.541%
O=C(CCc1ccccc1)C1CCCN(C(=O)c2cncc(Cl)c2)C1 (stereo unspecified)	20.48%	0.6798%
O=C(c1cccnc1O)N(Cc1cccs1)CC1CCCO1 (stereo unspecified)	3.2%	1.053%
COc1cc(CNCCc2nc(C)cs2)cc2c1OCCO2	23.2%	4.717%
COCc1cncc2c1CCN(Cc1cccnc1)C2	10.09%	-3.98%
COc1ccccc1[C@@H]1CN(Cc2c(C)noc2C)C[C@H]1C(=O)O	12.7%	3.633%
CCc1cn[nH]c1C1CCN(C(=O)c2cc(C#N)c(=O)[nH]c2C)CC1	3.665%	-5.106%
Cc1ccccc1C1CCCN1C(=O)CN1CC2(CCNCC2)OC1=O (stereo unspecified)	17.31%	-0.8514%
C1CC(CN2C[C@@H]3C[C@@H](c4nnc(C5CC5)o4)O[C@@H]3C2)C1	-1.389%	13.03%
Cc1cnn(CCNCc2c(C(C)C)nn(C)c2Cl)c1	2.679%	1.81%
CCc1ccccc1OCCCN(C)C(=O)C1CCCN1C(N)=O (stereo unspecified)	23.94%	1.966%
COc1ncccc1CNCc1c(C(C)C)nn(C)c1N(C)C	16%	-3.772%
Cc1cc(N2CCC(Cc3ncccn3)C2)ncn1 (stereo unspecified)	4.225%	0.8832%
O=C1CC(C(=O)Nc2nnc(-c3cccs3)[nH]2)c2ccccc2N1 (stereo unspecified)	11.43%	1.343%
CC(C)Cc1noc(CNc2cccc(-c3nnnn3C)c2)n1	6.25%	-0.3425%
O=C(NCCNC(=O)C1Cc2cc(F)ccc2O1)C1CCCCC1 (stereo unspecified)	5.333%	-7.06%
CCN(CC)CCNC(=O)c1cc(C(C)C)nc(N2CCCC2)n1	15.53%	21.11%

The last 3 entries again:

structure	A	B
CC(C)Cc1noc(CNc2cccc(-c3nnnn3C)c2)n1	6.25%	-0.3425%
O=C(NCCNC(=O)C1Cc2cc(F)ccc2O1)C1CCCCC1 (stereo unspecified)	5.333%	-7.06%
CCN(CC)CCNC(=O)c1cc(C(C)C)nc(N2CCCC2)n1	15.53%	21.11%